No constants are given. Whether binding was seen depends on the method and setting. Binding seen in cells or lysates may run through a third protein.
Target: BCL2L1/BCLXL (human (endogenous in SH-EP)) (UniProt Q07817)
Assay: condition: only cells treated with 50 nM MG-2477 for 30 minutes; co-IP; endogenous BCLXL precipitated with 1 ug BCLXL antibody from lysate of SH-EP cells treated with 50 nM MG-2477 for 30 minutes; immunoblot

Sequences of proteins named here, by UniProt entry; tags and fusion partners are left off.
UniProt Q07817: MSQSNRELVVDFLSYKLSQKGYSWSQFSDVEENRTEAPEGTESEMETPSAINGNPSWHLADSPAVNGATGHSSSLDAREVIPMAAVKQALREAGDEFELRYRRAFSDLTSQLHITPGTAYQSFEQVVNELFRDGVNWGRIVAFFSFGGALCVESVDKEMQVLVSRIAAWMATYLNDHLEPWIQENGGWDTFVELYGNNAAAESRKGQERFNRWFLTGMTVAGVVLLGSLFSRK
UniProt Q14457: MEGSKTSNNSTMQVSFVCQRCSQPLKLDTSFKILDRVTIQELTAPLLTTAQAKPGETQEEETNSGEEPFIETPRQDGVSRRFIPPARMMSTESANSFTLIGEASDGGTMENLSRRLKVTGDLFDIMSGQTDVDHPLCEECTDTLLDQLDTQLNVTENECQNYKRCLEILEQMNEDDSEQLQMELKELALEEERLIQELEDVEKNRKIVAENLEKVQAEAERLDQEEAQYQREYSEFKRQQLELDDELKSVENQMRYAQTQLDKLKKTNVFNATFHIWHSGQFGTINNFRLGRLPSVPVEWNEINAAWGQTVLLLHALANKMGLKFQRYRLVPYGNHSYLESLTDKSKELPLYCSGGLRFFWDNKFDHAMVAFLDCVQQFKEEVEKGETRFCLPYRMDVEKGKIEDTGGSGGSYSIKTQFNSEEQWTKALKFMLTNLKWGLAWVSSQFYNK

## BECN1/beclin1 (from UniProt Q14457 1-450)
  binding: no binding
